Publication PMC8278106
These are yes or no findings as the source states them, for the method shown. Binding seen in cells or lysates may run through a third protein. Binding can be weak; no strength is given.

Target: HIV-1 transactivator of transcription (Tat) (HIV-1)
Test: co-IP; HT1080 cells co-transfected with pcDNA-Tat and pCMV-JunB, lysed in RIPA buffer; 200 ug protein precipitated with anti-HIV-1 Tat antibody (ab43014 or NIH 2A4.1) and protein A agarose, overnight at 4°C; blot with anti-JunB; control IgG as negative control

B1: AP-1 factor JunB (protein, UniProt P17275 1-347)
chain: MCTKMEQPFYHDDSYTATGYGRAPGGLSLHDYKLLKPSLAVNLADPYRSLKAPGARGPGPEGGGGGSYFSGQGSDTGASLKLASSELERLIVPNSNGVITTTPTPPGQYFYPRGGGSGGGAGGAGGGVTEEQEGFADGFVKALDDLHKMNHVTPPNVSLGATGGPPAGPGGVYAGPEPPPVYTNLSSYSPASASSGGAGAAVGTGSSYPTTTISYLPHAPPFAGGHPAQLGLGRGASTFKEEPQTVPEARSRDATPPVSPINMEDQERIKVERKRLRNRLAATKCRKRKLERIARLEDKVKTLKAENAGLSSTAGLLREQVAQLKQKVMTHVSNGCQLLLGVKGHAF
binding: binds
